Paper PMC5470993, “Discovery and characterization of small molecule Rac1 inhibitors” (Oncotarget, 2017)
These are yes or no findings as the source states them, for the method shown. In cells and extracts the contact can be indirect. Some entries that bind do so weakly or less than the wild type.

By UniProt entry, the sequences of proteins in these tests, tags left out. Residues count along the entry.
UniProt P42768, residues 228-298: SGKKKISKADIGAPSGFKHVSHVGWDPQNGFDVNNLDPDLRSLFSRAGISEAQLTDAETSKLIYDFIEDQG
UniProt P60953: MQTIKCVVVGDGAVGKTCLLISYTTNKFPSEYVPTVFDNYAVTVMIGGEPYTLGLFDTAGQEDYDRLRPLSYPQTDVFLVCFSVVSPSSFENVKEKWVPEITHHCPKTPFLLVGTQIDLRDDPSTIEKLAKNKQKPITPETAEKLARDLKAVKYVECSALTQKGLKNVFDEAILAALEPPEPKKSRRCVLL

Biological target: GST-WASP-GBD (228-298aa) (UniProt P42768)
Test: pull-down; CD18/HPAF cell lysates (1% Triton X-100, 10 mM MgCl2, 4°C) incubated 1 h with agarose beads coated with GST-PAK1, GST-WASP or GST-Rhotekin; immunoblot for Rac1, Cdc42 or RhoA; cells treated with vehicle, compounds #1-#10, NSC23766 or EGF, or lysate with 1 mM GDP; only the target purified

- binding: binds
Substance: Cdc42 (endogenous, CD18/HPAF cells), GTP-bound (from UniProt P60953 1-191)
